Data: PubChem BioAssay AID540276 (National Center for Advancing Translational Sciences (NCATS), 2011)
Hit rate of the full screen: of about 300,000 compounds, about 5,400 (1.8%) were called active. Inconclusive means that the source gave no clear call. Such entries were picked first, then a sample of the others. The call rests on the fitted dose curve; tested in HEK293 cells. Potencies beside an inconclusive call are fits to weak or partial responses and may not hold up. Residues, ends and D or L forms follow the SMILES beside them. *: point of attachment. Cbz = O=C(OCc1ccccc1)*

Test: qHTS for inhibitors of binding or entry into cells for Marburg Virus
Conditions: Marburg virus pseudotyped entry inhibition, cell reporter; series mostly up to 37.8 µM
Potency means the concentration at half of the fitted maximal effect.

Row | SMILES | Potency
1 | Cn1cccc1CC(=O)N/N=C/C(Cl)=C/c1ccccc1 | inconclusive: 0.794 µM [activator, partial curve, poor fit]
2 | C=CCC(NCc1ccccc1)c1ccccc1 (stereo not given) | inconclusive: 3.16 µM [activator, partial curve, poor fit]
3 | COc1ccc(C(C)(C)C)cc1NC(=O)c1cc(S(=O)(=O)N(C)C)ccc1N1CCCC1 | inconclusive: 8.2 µM [inhibitor, partial curve, poor fit]
4 | COc1cccc(S(=O)(=O)Nc2ccc(C(=O)N3CCN(C(=O)c4ccco4)CC3)cc2)c1 | inactive
5 | COc1cc(/C=N/NC(=O)c2ccncc2)ccc1OCC(=O)Nc1ccc(C)c(C)c1 | inactive
6 | CC(/C=N/N1CCN(Cc2ccccc2)CC1)=C\c1ccccc1 | inactive
7 | CCOC(=O)c1ccccc1NC(=O)COC(=O)c1ccc(C)c(S(=O)(=O)N2CCOCC2)c1 | inconclusive: 6.31 µM [activator, single point]
8 | CCCNC(=O)CCn1nc(-c2ccc(Cl)cc2)c2ccccc2c1=O | inconclusive: 10 µM [inhibitor, partial curve, poor fit]
9 | COc1cccc(OCc2cc(C(=O)N3CCCC3c3ccccn3)no2)c1 (stereo not given) | inactive
10 | O=C(NCC1CCCO1)C(c1ccc(F)cc1)N(C(=O)Cn1nnc(-c2ccc(F)cc2)n1)c1cccc(O)c1 (stereo not given) | active: 10 µM
11 | COc1ccccc1CN(CC(=O)NCC1CCCO1)C(=O)CNS(=O)(=O)c1ccc(C)cc1 (stereo not given) | inconclusive: 0.631 µM [inhibitor, full curve, poor fit]
12 | CC(/C=N/NC(=O)c1cccs1)=C\c1ccccc1 | inconclusive: 1 µM [inhibitor, full curve, poor fit]
13 | CC(=O)NS(=O)(=O)c1ccc(NC(=O)CSc2ccc(C)cc2)cc1 | inconclusive: 7.94 µM [activator, partial curve, poor fit]
14 | COc1ccc(C(CNC(=O)COc2ccccc2C)N2CCCC2)cc1 (stereo not given) | inconclusive: 35.5 µM [inhibitor, single point]
15 | CC1=C(C(=O)Nc2cccnc2)C(c2ccc(F)cc2)n2nc(SCc3ccccc3F)nc2N1 (stereo not given) | inconclusive: 1.58 µM [activator, partial curve, poor fit]
16 | Cn1c(Cn2nnc3ccccc32)nnc1SCC(=O)N1c2ccccc2CCc2ccccc21 | inconclusive: 20.6 µM [inhibitor, single point]
17 | Cc1ccc(N2C(=O)C3N=NN(CC(=O)N4N=C(c5cccc6ccccc56)CC4c4ccccc4)C3C2=O)cc1 (stereo not given) | inconclusive: 6.51 µM [inhibitor, single point]
18 | Cc1cc(C)c(-c2csc(NC(=O)/C=C/c3cccs3)n2)c(C)c1 | inconclusive: 12.6 µM [inhibitor, single point]
19 | O=C(Nc1ccc(NC(=O)c2ccc3c(c2)OCCO3)cc1)c1ccccc1 | inconclusive: 28.2 µM [inhibitor, single point]
20 | Cc1ccc(NC(=O)c2ccco2)c(NC(=O)COc2ccccc2)c1 | inactive
21 | CSc1cc(SC)ncn1 | inactive
22 | Cc1cccc(Cn2ncc(Cl)c(Cl)c2=O)c1 | inconclusive: 29.1 µM [inhibitor, single point]
23 | CC(/C=N/Nc1nnc(C)c(=O)[nH]1)=C\c1ccccc1 | inconclusive: 6.51 µM [activator, single point]
24 | COC(=O)C(CC(C)C)NC(=O)/C=C/c1ccccc1Cl (stereo not given) | inconclusive: 6.31 µM [inhibitor, single point]

Given comma-delimited: 2 of the compounds above.
Row,SMILES,Potency
18,Cc1cc(C)c(-c2csc(NC(=O)/C=C/c3cccs3)n2)c(C)c1,"inconclusive: 12.6 µM [inhibitor, single point]"
19,O=C(Nc1ccc(NC(=O)c2ccc3c(c2)OCCO3)cc1)c1ccccc1,"inconclusive: 28.2 µM [inhibitor, single point]"

Next entries follow:

Row | SMILES | Potency
25 | O=C(Nc1ccc2nc(SCC(=O)N3CCOCC3)sc2c1)c1ccc(F)cc1 | inconclusive: 3.16 µM [activator, single point]
26 | CCS(=O)(=O)N1CCC2(CC1)OCCN2S(=O)(=O)c1ccc(OC)cc1 | inactive
27 | CNC(=O)c1cc2c(n(-c3ccc(C)cc3)c1=O)CC(C)(C)CC2=O | inactive
28 | CCc1ccc(-c2nc(CSCC(=O)N3CCN(c4ccccn4)CC3)c(C)o2)cc1 | inactive
29 | CCN(C=NC1=NN(c2cccc(C(F)(F)F)c2)CC1)CC | inconclusive: 1.12 µM [activator, full curve, poor fit]
30 | CCOC(=O)c1cc(NC(=O)COc2ccc([N+](=O)[O-])cc2)cc(C(=O)OCC)c1 | inconclusive: 0.794 µM [inhibitor, full curve, poor fit]
31 | C/C(=N\NC(=O)c1ccccc1)c1ccc(NC(=O)C(F)(F)F)cc1 | inactive
32 | Cc1nnc(NC(=O)c2ccc(S(=O)(=O)N(C)c3ccccc3)cc2)s1 | inactive
33 | C=CCn1c(N2CCN(c3ccc(OC)cc3)CC2)nc2c1c(=O)n(C)c(=O)n2C | inconclusive: 10 µM [inhibitor, partial curve, poor fit]
34 | Cc1ccccc1OCCOC(=O)c1c(-c2ccccc2)noc1C | inconclusive: 5.62 µM [inhibitor, full curve]
35 | CCOc1ccccc1Oc1cn[nH]c1-c1ccc(OCC(=O)NN)cc1O | inconclusive: 35.5 µM [inhibitor, single point]
36 | CCOc1ccc(NC(=O)CN2C(=O)S/C(=C/c3cccn3C)C2=O)cc1 | inconclusive: 1.41 µM [inhibitor, partial curve, poor fit]
37 | Cc1cc(C)n2ncc(C(=O)NCc3cccnc3)c2n1 | inactive
38 | Cc1cc(NC(=O)CSc2nc3sc(C)c(C)c3c(=O)n2C2CCCC2)no1 | inconclusive: 0.92 µM [inhibitor, partial curve, poor fit]
39 | CC(C)CCNC(=O)NC(=O)COC(=O)/C=C/c1cc(Br)ccc1F | inconclusive: 3.98 µM [inhibitor, single point]
40 | COc1cccc(C(=O)Nc2c3c(nc4c2CCC4)CCCC3)c1 | inconclusive: 0.112 µM [activator, full curve, poor fit]
41 | O=C(CCCN1C(=O)/C(=C/c2cccs2)SC1=S)Nc1cccnc1 | inconclusive: 10 µM [inhibitor, partial curve, poor fit]
42 | CCCc1nc(C)cc(N2CCN(c3ccccc3)CC2)n1 | inconclusive: 7.08 µM [inhibitor, full curve, poor fit]
43 | CC(=O)c1c(O)cc(C)n(Nc2nc(C)cc(C)n2)c1=O | inconclusive: 1.16 µM [inhibitor, single point]
44 | Cc1ccc(S(=O)(=O)N(C)C)cc1NC(=S)Nc1ccc2cn[nH]c2c1 | inactive
45 | CCC(=O)c1ccc(OCCSc2ncccn2)cc1 | inactive
46 | N/C(Cc1ccc(Cl)cc1Cl)=N\OC(=O)Cc1ccccc1 | inactive
47 | CC1(C)CCC=[N+]1[O-] | inactive
48 | COCCCNc1nc2c(c(=O)n(C)c(=O)n2C)n1Cc1cccc(OC)c1 | inactive

Row | SMILES | Potency
49 | CCOc1cc(N2CCOCC2)c(OCC)cc1NC(=O)c1cc(S(=O)(=O)N2CCOCC2)ccc1Cl | inconclusive: 35.5 µM [inhibitor, single point]
50 | O=C(Nc1cccc(Cl)c1N1CCCC1)c1cc2ccccc2o1 | inactive
51 | COc1ccc(CNC(=O)COC(=O)c2ccc3c(c2)OCCO3)cc1 | inactive
52 | Cc1nn(-c2ccc([N+](=O)[O-])cc2)c2c1C(c1cccc(Br)c1)N1C(=N2)C(=O)Nc2ccccc21 (stereo not given) | inconclusive: 2.51 µM [inhibitor, full curve, poor fit]
53 | Cc1ccc(S(=O)(=O)N/N=C/c2ccc(OCC(=O)N3CCOCC3)cc2)cc1 | inconclusive: 0.316 µM [activator, full curve, poor fit]
54 | Cc1cc(C(=O)CSc2nnc(-c3ccco3)o2)c(C)n1C | inactive
55 | O=C(CN1C(=O)c2ccccc2C1=O)NN1C(=O)c2ccccc2C1=O | inactive
56 | COc1cccc(NC(=O)Cn2c(CCC(=O)O)ccc2-c2cccs2)c1 | inactive
57 | CCCCNC(=O)c1cc2n(n1)[C@@H](C(F)(F)F)C[C@H](c1ccccc1)N2 | inactive
58 | N/C(=N\OC(=O)c1cccc(Br)c1)c1ccccc1 | inconclusive: 11.6 µM [activator, partial curve]
59 | CCOC(=O)c1c(-c2ccccc2)csc1NC(=S)NC(=O)c1ccccc1 | inconclusive: 29.1 µM [inhibitor, single point]
60 | O=C(CS(=O)(=O)c1ccccc1)Nc1ncc([N+](=O)[O-])s1 | inactive
61 | COC(=O)C(C)NC(=O)C1CCCN1C(=O)CNC(=O)OCc1ccccc1 (stereo not drawn) (Cbz-Gly-Pro-Ala-OMe; configuration not given here) | inconclusive: 5.62 µM [inhibitor, partial curve, poor fit]
62 | O=[S+]1([O-])C[C@H](N2CCN(CCO)CC2)[C@H](COCc2ccccc2)N1 | inconclusive: 28.1 µM [activator, single point]
63 | COC(=O)Nc1csc2c1NC(=O)CCCC2 | inconclusive: 35.5 µM [inhibitor, single point]
64 | COc1ccc(Cn2nnnc2C(c2cc3ccc(OC)cc3[nH]c2=O)N2CCCCCC2)cc1 (stereo not given) | inactive
65 | O=C(CSc1nnc(CNC(=O)c2ccccc2)o1)NCc1ccccc1 | inactive
66 | Cc1ccc([N+](=O)[O-])cc1S(=O)(=O)Nc1cccc(S(=O)(=O)NC2=NCCC2)c1 | inactive
67 | Cc1ccc(C(=O)NCCNc2ccc(Cl)cc2[N+](=O)[O-])o1 | inactive
68 | Oc1ccc2c(c1)[C@H]1CCC[C@]1(N1CCOCC1)O2 | inactive
69 | O=C(NC1CCCCCCC1)C1CCN(c2nc3ccccc3o2)CC1 | inconclusive: 9.2 µM [inhibitor, partial curve, poor fit]
70 | CCc1cccc(C)c1NC(=O)COC(=O)c1cc([N+](=O)[O-])ccc1N1CCOCC1 | inconclusive: 10 µM [inhibitor, partial curve, poor fit]

Arranged by molar mass (ascending): part of the list above
Row | SMILES | Potency
29 | CCN(C=NC1=NN(c2cccc(C(F)(F)F)c2)CC1)CC | inconclusive: 1.12 µM [activator, full curve, poor fit]
61 | COC(=O)C(C)NC(=O)C1CCCN1C(=O)CNC(=O)OCc1ccccc1 (stereo not drawn) (Cbz-Gly-Pro-Ala-OMe; configuration not given here) | inconclusive: 5.62 µM [inhibitor, partial curve, poor fit]
3 | COc1ccc(C(C)(C)C)cc1NC(=O)c1cc(S(=O)(=O)N(C)C)ccc1N1CCCC1 | inconclusive: 8.2 µM [inhibitor, partial curve, poor fit]
